This is one part of the list.

Protein sequences, listed by entry. Tags and fused reporters are not part of them. Lines headed by an entry give the natural chain unless they say otherwise; changes in a name come on top.
UniProt Q7Z7A4: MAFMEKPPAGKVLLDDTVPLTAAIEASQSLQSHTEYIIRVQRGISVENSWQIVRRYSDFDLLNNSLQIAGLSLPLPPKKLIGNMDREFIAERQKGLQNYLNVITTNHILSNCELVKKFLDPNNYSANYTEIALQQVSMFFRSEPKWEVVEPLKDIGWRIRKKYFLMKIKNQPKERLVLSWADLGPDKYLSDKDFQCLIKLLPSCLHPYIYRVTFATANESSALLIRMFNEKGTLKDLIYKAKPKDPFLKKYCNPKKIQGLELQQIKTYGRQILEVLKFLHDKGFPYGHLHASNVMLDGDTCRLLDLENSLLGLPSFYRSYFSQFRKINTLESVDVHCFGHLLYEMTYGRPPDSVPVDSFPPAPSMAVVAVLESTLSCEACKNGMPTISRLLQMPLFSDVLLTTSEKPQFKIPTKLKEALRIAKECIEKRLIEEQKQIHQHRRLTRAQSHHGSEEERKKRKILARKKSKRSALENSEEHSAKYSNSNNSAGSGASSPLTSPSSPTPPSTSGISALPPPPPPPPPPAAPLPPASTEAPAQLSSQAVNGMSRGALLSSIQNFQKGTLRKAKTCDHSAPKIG
UniProt P20742, whole entry, looked up: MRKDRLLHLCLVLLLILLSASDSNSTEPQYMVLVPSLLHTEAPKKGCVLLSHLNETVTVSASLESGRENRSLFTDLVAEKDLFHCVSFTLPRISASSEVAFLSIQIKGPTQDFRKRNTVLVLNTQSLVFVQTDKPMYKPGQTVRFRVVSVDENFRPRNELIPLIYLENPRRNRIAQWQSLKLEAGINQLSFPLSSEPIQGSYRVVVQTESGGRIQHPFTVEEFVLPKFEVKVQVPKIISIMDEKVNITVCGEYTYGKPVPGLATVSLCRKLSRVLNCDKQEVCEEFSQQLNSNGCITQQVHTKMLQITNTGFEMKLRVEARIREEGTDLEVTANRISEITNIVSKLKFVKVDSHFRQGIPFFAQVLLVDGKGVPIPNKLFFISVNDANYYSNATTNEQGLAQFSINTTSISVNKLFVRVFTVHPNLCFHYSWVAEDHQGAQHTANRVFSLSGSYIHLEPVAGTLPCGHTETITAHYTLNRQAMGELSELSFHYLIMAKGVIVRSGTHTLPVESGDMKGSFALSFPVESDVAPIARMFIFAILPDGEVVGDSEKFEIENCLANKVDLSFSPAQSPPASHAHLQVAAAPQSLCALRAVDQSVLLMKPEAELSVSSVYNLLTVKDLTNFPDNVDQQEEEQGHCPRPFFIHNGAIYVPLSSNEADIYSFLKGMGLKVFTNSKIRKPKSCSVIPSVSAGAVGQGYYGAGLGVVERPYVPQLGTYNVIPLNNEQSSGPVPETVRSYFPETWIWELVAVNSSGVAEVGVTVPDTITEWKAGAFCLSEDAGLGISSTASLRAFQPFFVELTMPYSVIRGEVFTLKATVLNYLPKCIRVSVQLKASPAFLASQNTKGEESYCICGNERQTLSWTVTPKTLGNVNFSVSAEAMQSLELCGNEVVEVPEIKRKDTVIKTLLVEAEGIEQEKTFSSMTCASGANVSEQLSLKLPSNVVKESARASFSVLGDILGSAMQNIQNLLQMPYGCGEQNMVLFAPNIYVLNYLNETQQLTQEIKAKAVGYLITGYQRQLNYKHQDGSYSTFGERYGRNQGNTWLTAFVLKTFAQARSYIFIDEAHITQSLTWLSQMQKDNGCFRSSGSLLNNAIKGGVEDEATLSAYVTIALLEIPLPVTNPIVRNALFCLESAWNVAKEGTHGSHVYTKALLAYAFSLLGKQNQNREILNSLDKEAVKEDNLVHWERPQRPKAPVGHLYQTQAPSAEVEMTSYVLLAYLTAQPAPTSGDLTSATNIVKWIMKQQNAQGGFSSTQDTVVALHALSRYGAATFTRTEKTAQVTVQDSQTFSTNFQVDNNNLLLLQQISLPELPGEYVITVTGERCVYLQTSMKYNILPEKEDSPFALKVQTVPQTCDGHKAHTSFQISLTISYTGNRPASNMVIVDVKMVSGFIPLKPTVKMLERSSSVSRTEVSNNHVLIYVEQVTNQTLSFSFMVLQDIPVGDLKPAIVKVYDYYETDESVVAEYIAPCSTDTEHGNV
UniProt P47897: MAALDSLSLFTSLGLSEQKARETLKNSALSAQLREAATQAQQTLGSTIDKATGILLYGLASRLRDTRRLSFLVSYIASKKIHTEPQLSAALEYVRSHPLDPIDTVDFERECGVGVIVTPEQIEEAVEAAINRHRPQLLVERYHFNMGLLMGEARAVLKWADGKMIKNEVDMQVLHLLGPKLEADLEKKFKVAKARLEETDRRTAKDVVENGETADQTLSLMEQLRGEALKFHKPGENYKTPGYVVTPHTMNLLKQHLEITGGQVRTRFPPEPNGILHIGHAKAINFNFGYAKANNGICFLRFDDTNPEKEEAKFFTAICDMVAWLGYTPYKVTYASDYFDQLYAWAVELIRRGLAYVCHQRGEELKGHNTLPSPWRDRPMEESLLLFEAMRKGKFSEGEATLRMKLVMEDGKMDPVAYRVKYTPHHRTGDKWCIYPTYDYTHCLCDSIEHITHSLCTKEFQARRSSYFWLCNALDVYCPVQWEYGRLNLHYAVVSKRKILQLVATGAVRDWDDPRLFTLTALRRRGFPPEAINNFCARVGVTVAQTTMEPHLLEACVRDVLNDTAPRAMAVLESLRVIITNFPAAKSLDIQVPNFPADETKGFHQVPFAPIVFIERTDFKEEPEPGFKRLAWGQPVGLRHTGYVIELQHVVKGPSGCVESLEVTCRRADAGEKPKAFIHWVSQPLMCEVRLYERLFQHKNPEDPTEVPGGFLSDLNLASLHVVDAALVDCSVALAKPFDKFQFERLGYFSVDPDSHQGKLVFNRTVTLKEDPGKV
UniProt Q9H939: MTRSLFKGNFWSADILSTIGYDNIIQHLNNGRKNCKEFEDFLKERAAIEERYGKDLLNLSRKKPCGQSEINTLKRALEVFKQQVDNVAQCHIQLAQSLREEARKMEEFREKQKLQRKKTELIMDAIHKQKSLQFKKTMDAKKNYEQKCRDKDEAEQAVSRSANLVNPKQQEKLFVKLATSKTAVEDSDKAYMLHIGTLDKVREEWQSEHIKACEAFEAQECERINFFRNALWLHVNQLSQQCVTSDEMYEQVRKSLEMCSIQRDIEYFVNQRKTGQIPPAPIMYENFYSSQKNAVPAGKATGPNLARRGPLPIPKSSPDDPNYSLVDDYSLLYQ
UniProt O95997: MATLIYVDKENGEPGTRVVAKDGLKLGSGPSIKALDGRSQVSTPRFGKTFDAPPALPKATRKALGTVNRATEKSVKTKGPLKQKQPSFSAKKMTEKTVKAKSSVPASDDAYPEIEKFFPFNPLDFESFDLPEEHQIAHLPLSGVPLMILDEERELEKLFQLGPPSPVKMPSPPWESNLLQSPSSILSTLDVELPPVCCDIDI
UniProt P20962: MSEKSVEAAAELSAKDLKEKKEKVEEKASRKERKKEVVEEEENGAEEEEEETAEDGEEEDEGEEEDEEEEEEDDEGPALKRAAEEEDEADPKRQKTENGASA
UniProt Q8TB72: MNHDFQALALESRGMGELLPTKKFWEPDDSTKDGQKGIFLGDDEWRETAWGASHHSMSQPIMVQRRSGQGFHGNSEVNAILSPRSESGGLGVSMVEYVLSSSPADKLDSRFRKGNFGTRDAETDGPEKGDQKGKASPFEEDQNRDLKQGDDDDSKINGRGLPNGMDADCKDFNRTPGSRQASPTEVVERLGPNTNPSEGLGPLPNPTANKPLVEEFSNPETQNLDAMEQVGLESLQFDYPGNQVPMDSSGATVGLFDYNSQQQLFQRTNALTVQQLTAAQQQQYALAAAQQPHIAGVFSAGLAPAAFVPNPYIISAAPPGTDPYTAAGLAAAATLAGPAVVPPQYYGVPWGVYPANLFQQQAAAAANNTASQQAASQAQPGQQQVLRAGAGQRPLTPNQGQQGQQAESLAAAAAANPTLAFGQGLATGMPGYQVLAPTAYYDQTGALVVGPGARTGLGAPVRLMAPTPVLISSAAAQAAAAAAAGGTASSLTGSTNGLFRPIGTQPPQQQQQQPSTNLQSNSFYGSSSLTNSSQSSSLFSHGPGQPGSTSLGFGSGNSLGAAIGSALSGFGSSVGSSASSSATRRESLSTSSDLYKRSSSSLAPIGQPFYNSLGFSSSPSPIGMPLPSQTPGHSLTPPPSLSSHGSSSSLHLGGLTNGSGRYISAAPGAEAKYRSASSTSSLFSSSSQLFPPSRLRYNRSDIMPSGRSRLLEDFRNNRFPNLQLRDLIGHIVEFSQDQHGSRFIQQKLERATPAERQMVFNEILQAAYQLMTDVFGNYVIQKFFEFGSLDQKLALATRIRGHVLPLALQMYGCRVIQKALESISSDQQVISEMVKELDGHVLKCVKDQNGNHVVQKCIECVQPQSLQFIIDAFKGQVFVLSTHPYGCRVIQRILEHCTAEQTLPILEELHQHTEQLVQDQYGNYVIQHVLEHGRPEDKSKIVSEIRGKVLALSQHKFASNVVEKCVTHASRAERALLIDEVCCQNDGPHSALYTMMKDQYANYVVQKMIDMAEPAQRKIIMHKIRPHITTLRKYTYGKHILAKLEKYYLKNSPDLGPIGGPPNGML
UniProt Q8WU10: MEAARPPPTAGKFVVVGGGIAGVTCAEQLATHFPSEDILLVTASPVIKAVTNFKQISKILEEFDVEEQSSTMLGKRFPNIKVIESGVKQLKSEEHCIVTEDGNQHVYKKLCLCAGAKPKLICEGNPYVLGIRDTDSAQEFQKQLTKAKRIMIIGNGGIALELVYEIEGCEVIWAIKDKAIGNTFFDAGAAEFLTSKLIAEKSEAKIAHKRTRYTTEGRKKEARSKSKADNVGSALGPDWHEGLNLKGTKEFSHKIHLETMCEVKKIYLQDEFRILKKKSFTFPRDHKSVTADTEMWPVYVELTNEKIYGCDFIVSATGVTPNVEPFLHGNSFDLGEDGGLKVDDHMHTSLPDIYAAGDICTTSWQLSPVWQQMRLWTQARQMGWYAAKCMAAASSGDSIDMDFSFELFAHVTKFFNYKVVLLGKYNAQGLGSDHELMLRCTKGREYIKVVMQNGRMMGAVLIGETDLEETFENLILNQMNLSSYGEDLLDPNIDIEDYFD
UniProt O00231, whole entry, looked up: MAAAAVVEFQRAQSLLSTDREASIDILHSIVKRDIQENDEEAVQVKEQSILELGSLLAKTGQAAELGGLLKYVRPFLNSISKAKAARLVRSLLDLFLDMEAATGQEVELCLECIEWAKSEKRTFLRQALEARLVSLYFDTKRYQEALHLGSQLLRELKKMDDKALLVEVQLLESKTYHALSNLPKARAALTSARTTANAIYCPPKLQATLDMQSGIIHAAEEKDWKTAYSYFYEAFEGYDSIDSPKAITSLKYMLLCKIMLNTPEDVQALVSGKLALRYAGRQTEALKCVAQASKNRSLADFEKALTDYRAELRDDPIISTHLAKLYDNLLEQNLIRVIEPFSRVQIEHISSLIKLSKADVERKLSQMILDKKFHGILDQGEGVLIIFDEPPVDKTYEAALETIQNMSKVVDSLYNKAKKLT
UniProt O00232: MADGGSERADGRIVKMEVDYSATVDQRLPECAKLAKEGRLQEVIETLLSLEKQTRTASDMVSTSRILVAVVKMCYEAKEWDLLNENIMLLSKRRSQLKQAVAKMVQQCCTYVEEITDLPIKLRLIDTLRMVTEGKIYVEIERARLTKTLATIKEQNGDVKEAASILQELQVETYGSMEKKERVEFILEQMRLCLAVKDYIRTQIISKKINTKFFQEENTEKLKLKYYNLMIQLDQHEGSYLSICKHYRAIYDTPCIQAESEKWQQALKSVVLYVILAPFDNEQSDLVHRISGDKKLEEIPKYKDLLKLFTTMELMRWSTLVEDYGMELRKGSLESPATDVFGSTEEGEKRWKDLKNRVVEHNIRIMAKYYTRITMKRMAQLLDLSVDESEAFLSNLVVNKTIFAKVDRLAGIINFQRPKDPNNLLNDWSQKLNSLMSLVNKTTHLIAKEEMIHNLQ
UniProt Q15008: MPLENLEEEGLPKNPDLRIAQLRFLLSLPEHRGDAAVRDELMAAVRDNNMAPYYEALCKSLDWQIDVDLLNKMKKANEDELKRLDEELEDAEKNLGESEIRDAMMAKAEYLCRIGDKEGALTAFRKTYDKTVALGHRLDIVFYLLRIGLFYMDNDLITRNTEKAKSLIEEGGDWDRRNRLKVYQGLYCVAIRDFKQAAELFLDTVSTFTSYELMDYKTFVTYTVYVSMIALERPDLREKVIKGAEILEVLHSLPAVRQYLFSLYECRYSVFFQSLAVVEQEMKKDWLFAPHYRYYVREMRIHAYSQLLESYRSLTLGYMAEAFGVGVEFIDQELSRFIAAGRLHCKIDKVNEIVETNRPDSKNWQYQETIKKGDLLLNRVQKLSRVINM
UniProt P25789: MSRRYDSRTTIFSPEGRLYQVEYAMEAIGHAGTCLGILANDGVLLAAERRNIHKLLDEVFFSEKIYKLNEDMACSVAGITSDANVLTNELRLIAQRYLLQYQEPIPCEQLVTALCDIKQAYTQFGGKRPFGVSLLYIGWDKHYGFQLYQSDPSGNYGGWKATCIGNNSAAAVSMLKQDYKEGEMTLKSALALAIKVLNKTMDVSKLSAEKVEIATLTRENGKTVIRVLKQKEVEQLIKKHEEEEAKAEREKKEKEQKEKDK

Compound in this assay: C1=CC=C(C=C1)[C@H](COC2=CC3=C(C=C2)NC(=O)N3)NC(=O)C4=CC=CN(C4=O)CC5=CC(=C(C=C5)F)F
The assay is described as follows: log2 fold change, soluble protein after heating vs DMSO (PISA); higher = thermal stabilisation; K562 cells, 10 uM, 30 min; active = over 0.2 and 3.5 SD of the protein, either way, in both replicates (recomputed). The procedure, abridged:
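K562 cells at 2×10^6 cells/mL were given 10 μM compound for 30 min. Aliquots then went through 3 min of heating across 48°C-58°C, were pooled, and were extracted in PBS with 0.5% NP-40 at 4°C, and the supernatant after 21,000xg for 90 min was quantified by TMTpro 16plex LC-MS/MS with channel sums equalised. Thermal stability relative to control samples, from duplicates, is given as log2 fold change.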
For the target PTPA (UniProt A6PVN8), the log2 fold change is inactive: 0.011.

PXK (UniProt Q7Z7A4): the log2 fold change was inactive: -0.015.

As for PSEN1 (UniProt P49768), the log2 fold change is inactive: -0.101.

In the case of PSMA7 isoform 2 (UniProt O14818), the log2 fold change is inactive: 0.033.

Take PSME2 (UniProt Q9UL46): the log2 fold change is inactive: -0.016.

On to PZP (UniProt P20742), for which the log2 fold change is inactive: -0.008.

On to QARS (UniProt P47897), for which the log2 fold change was inactive: 0.116.

Take PSMA8 (UniProt Q8TAA3): the log2 fold change is inactive: 0.089.

With PSTPIP2 (UniProt Q9H939), the log2 fold change is inactive: -0.059.

Regarding PSPC1 (UniProt Q8WXF1), the log2 fold change was inactive: -0.023.

Regarding PSMC6 (UniProt P62333), the log2 fold change was inactive: 0.04.

For the target PTGES3 (UniProt Q15185), the log2 fold change was inactive: -0.009.

In the case of PTTG1 (UniProt O95997), the log2 fold change was inactive: -0.005.

Regarding PRUNE1 (UniProt Q86TP1), the log2 fold change was inactive: -0.025.

Regarding QSOX2 (UniProt Q6ZRP7), the log2 fold change is inactive: 0.026.

With PYGL (UniProt P06737), the log2 fold change is inactive: 0.006.

Take PTMS (UniProt P20962): the log2 fold change was inactive: -0.011.

As to PSRC1 (UniProt Q6PGN9), the log2 fold change is inactive: 0.

For the target PSMG4 isoform 2 (UniProt Q5JS54), the log2 fold change was inactive: 0.048.

On to PUM2 (UniProt Q8TB72), for which the log2 fold change is inactive: 0.041.

On to PYROXD1 (UniProt Q8WU10), for which the log2 fold change is inactive: 0.104.

For PSMD11 (UniProt O00231), the log2 fold change is inactive: 0.043.

With PSAP isoform 3 (UniProt P07602), the log2 fold change was inactive: -0.037.

Consider PSMD12 (UniProt O00232), for which the log2 fold change was inactive: 0.021.

Consider PSMD6 (UniProt Q15008), for which the log2 fold change is inactive: 0.019.

As to PUF60 isoform 2 (UniProt Q9UHX1), the log2 fold change was inactive: 0.044.

In the case of PTDSS2 (UniProt Q9BVG9), the log2 fold change is inactive: -0.042.

As to PSMA4 (UniProt P25789), the log2 fold change is inactive: 0.019.

Consider PSMB3 (UniProt P49720), for which the log2 fold change was inactive: -0.006.

Consider QSOX1 (UniProt O00391), for which the log2 fold change was inactive: 0.005.

Take PUS7 isoform 2 (UniProt Q96PZ0): the log2 fold change was inactive: 0.007.

As for PTK2B (UniProt Q14289), the log2 fold change was inactive: -0.105.

The values are drawn from the supplement of paper PMC10849652.
